PubChem BioAssay AID686943, Drosophila RNAi Screening Center, 2013

- Aim: 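Knockdowns that increase or decrease active ERK after insulin receptor stimulation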 (primary screen)
- System: Drosophila S2R+ haemocyte-like cells expressing YFP-tagged ERK (Rolled)
- Knock-down reagent: long dsRNA against Drosophila genes
- Challenge: insulin stimulation versus unstimulated cells; dose and duration not given
- Measurement: 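Per-plate z-scores of phospho-ERK immunostaining normalised to YFP-tagged ERK, measured with and without insulin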
- Direction: replicate 1, z-score of dpERK with insulin: higher = more active ERK per ERK-YFP after insulin
The screen tested about 23,000 reagents; shown is a random part of those that have a named target and a result. 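Extra replicates exist only for a retested subset of genes; insulin dose and duration not given; both raised and lowered dpERK matter.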 Names joined by + are all predicted targets of the reagent. Further read-outs or replicates are left out here. No sequences are given here. Not given: the amount of reagent, the time to read-out.

Against COX7C [DRSC06831] the deposit lists replicate 1, z-score of dpERK with insulin -0.52.
For lectin-21Ca [DRSC00541], the entry reads replicate 1, z-score of dpERK with insulin 1.56.
Against MED8 [DRSC06426], the values are replicate 1, z-score of dpERK with insulin 3.32.
Silencing of Pi3K92E [DRSC16788] resulted in: replicate 1, z-score of dpERK with insulin -1.05.
to [DRSC17086] showed replicate 1, z-score of dpERK with insulin 0.42.
After knock-down of Rab4 + CG42239 [DRSC05667] the results were replicate 1, z-score of dpERK with insulin 0.27.
With knock-down of lic [DRSC20347], the screen gave replicate 1, z-score of dpERK with insulin 0.32.
After knock-down of LpR2 [DRSC13726] the results were replicate 1, z-score of dpERK with insulin 0.72.
Silencing of LpR2 [DRSC13728] resulted in: replicate 1, z-score of dpERK with insulin -0.46.
For LpR2 [DRSC15655] the deposit lists replicate 1, z-score of dpERK with insulin 0.33.
Depletion of LpR2 [DRSC15658] gave: replicate 1, z-score of dpERK with insulin 0.3.
With knock-down of CalpA [DRSC07352] the results were replicate 1, z-score of dpERK with insulin 0.95.
For CG5646 [DRSC15853], the values are replicate 1, z-score of dpERK with insulin 0.02.
With knock-down of RpL32 [DRSC16835] the results were replicate 1, z-score of dpERK with insulin 1.51.
After knock-down of CG8661 [DRSC20115], the screen gave replicate 1, z-score of dpERK with insulin 0.94.
DCX-EMAP [DRSC10012] showed replicate 1, z-score of dpERK with insulin 0.35.
DCX-EMAP [DRSC10013] showed replicate 1, z-score of dpERK with insulin -0.74.
After knock-down of GstE9 [DRSC06679], the screen gave replicate 1, z-score of dpERK with insulin -0.03.
Silencing of CG7164 [DRSC03018] gave: replicate 1, z-score of dpERK with insulin -1.76.
Knock-down of CG9107 [DRSC03138] came out at: replicate 1, z-score of dpERK with insulin -1.17.
With knock-down of CG34007 [DRSC01790] the results were replicate 1, z-score of dpERK with insulin -0.36.
For CG6126 [DRSC15971], the values are replicate 1, z-score of dpERK with insulin 0.29.
Depletion of Cmpk [DRSC16643] came out at: replicate 1, z-score of dpERK with insulin 0.4.
For CG5664 [DRSC11782] the deposit lists replicate 1, z-score of dpERK with insulin -0.07.

6 entries from above, ordered by “replicate 1, z-score of dpERK with insulin”, highest first.
CG8661 [DRSC20115] — replicate 1, z-score of dpERK with insulin: 0.94
DCX-EMAP [DRSC10012] — replicate 1, z-score of dpERK with insulin: 0.35
GstE9 [DRSC06679] — replicate 1, z-score of dpERK with insulin: -0.03
DCX-EMAP [DRSC10013] — replicate 1, z-score of dpERK with insulin: -0.74
CG9107 [DRSC03138] — replicate 1, z-score of dpERK with insulin: -1.17
CG7164 [DRSC03018] — replicate 1, z-score of dpERK with insulin: -1.76

The results go on.
With knock-down of CG8517 [DRSC07205], the record shows replicate 1, z-score of dpERK with insulin 0.95.
For CG42336 [DRSC05273], the entry reads replicate 1, z-score of dpERK with insulin 0.39.
CG42336 [DRSC06332] scored replicate 1, z-score of dpERK with insulin 0.31.
For CG42336 [DRSC06333], the values are replicate 1, z-score of dpERK with insulin 0.19.
For CG3520 [DRSC04383], the entry reads replicate 1, z-score of dpERK with insulin -0.5.
Against CG3225 [DRSC00578], the entry reads replicate 1, z-score of dpERK with insulin 0.17.
Against net [DRSC00309], the entry reads replicate 1, z-score of dpERK with insulin 0.89.
Knock-down of Cyp49a1 [DRSC06737] resulted in: replicate 1, z-score of dpERK with insulin -0.04.
Cyp49a1 [DRSC07367] gave replicate 1, z-score of dpERK with insulin 0.14.
For CG14933 + CG42486 [DRSC02415], the values are replicate 1, z-score of dpERK with insulin 0.12.
For CG15534 [DRSC15070], the values are replicate 1, z-score of dpERK with insulin 0.04.
After knock-down of CG4842 [DRSC10453] the results were replicate 1, z-score of dpERK with insulin -0.26.
With knock-down of Cpr78Cc [DRSC11846], the record shows replicate 1, z-score of dpERK with insulin -0.05.
Rsph9 [DRSC01594] scored replicate 1, z-score of dpERK with insulin -0.1.
Silencing of CG31510 [DRSC14182] came out at: replicate 1, z-score of dpERK with insulin 0.37.
With knock-down of Gba1b [DRSC21531], the screen gave replicate 1, z-score of dpERK with insulin 0.06.
